# Laboratory results published in the supplement of paper PMC4604168 (melanoma cell lines).
# Some of the results follow. Single values are uncertain, as repeats are few or missing.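 The apoptosis fraction was the count of cleaved-PARP antibody-stained nuclei relative to all DNA-stained nuclei, imaged in 1,536-well plates. Screening doses were set so most cells survived, and baseline and induced cleaved-PARP levels vary greatly across cell lines.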
# Columns and labels:
# Test in all cases: cleaved PARP positive nuclei fraction relative to DMSO control; melanoma cells; higher = more apoptosis
# Conditions in all cases: library dose: low library concentration; 72 h
# 501Mel = test system: 501Mel
# A101D = test system: A101D
# A2058 = test system: A2058
# A375 = test system: A375
# C32 = test system: C32
# CBRC008 = test system: CBRC008 (line from a melanoma biopsy)
# CBRC014 = test system: CBRC014 (line from a melanoma biopsy)
# CBRC016 = test system: CBRC016 (line from a melanoma biopsy)
# CBRC017 = test system: CBRC017 (line from a melanoma biopsy)
# CBRC034 = test system: CBRC034 (line from a melanoma biopsy)
# COLO792 = test system: COLO792
# COLO800 = test system: COLO800
# COLO829 = test system: COLO829
# G361 = test system: G361
# IPC-298 = test system: IPC-298
# IST-MEL1 = test system: IST-MEL1
# LB2518-MEL = test system: LB2518-MEL
# LOXIMVI = test system: LOXIMVI
# MEL-HO = test system: MEL-HO
SMILES,cleaved PARP positive nuclei fraction (501Mel) [%],cleaved PARP positive nuclei fraction (A101D) [%],cleaved PARP positive nuclei fraction (A2058) [%],cleaved PARP positive nuclei fraction (A375) [%],cleaved PARP positive nuclei fraction (C32) [%],cleaved PARP positive nuclei fraction (CBRC008) [%],cleaved PARP positive nuclei fraction (CBRC014) [%],cleaved PARP positive nuclei fraction (CBRC016) [%],cleaved PARP positive nuclei fraction (CBRC017) [%],cleaved PARP positive nuclei fraction (CBRC034) [%],cleaved PARP positive nuclei fraction (COLO792) [%],cleaved PARP positive nuclei fraction (COLO800) [%],cleaved PARP positive nuclei fraction (COLO829) [%],cleaved PARP positive nuclei fraction (G361) [%],cleaved PARP positive nuclei fraction (IPC-298) [%],cleaved PARP positive nuclei fraction (IST-MEL1) [%],cleaved PARP positive nuclei fraction (LB2518-MEL) [%],cleaved PARP positive nuclei fraction (LOXIMVI) [%],cleaved PARP positive nuclei fraction (MEL-HO) [%]
"Cn1cnc2c(F)c(Nc3ccc(Br)cc3Cl)c(C(=O)NOCCO)cc21 [selumetinib] + O=C(O)[C@@H]1[O][Sb](=[O])([O][Sb]2(=[O])[O][C@H]([C@H](O)CO)[C@H](O)[C@H](C(=O)O)[O]2)[O][C@H]([C@H](O)CO)[C@@H]1O [stibogluconate] (first compound 0.015 µM, partner dose 2 µM)",633,122,106,403,93.5,104,89.3,57.1,128,43.2,94.4,140,85.1,103,183,99.9,333,52,149
"CCN(CC)CCNC(=O)c1c(C)[nH]c(/C=C2\C(=O)Nc3ccc(F)cc32)c1C [sunitinib] + Nc1cccc2c1CN(C1CCC(=O)NC1=O)C2=O [lenalidomide] (first compound 0.4 µM, partner dose 1 µM)",92.9,114,99.5,140,89.7,138,98.3,39.4,93.7,78.4,321,93.2,122,142,41.8,132,109,57.3,64.6
"CCCCCCCCc1ccc(CCC(N)(CO)CO)cc1 [fingolimod] + Nc1cccc2c1CN(C1CCC(=O)NC1=O)C2=O [lenalidomide] (first compound 2 µM, partner dose 1 µM)",156,45.9,308,394,74,101,91.6,83.8,124,128,89.9,236,104,56.4,90.7,123,93.5,159,220
"Cn1cnc2c(F)c(Nc3ccc(Br)cc3Cl)c(C(=O)NOCCO)cc21 [selumetinib] + C[C@@H](Oc1cc(-c2cnn(C3CCNCC3)c2)cnc1N)c1c(Cl)ccc(F)c1Cl [Crizotinib] (first compound 0.015 µM, partner dose 0.2 µM)",1550,85.3,66.3,87.7,87.4,161,108,31.9,180,115,124,50.4,171,94.9,61.5,71,149,111,273
"COc1ccc(C2=N[C@@H](c3ccc(Cl)cc3)[C@@H](c3ccc(Cl)cc3)N2C(=O)N2CCNC(=O)C2)c(OC(C)C)c1 [Nutlin-3] + Nc1ccn([C@@H]2O[C@H](CO)[C@@H](O)C2(F)F)c(=O)n1 [gemcitabine] (first compound 0.1 µM, partner dose 0.0004 µM)",56.9,144,111,156,80.1,182,120,110,125,103,125,38.1,117,185,359,21.3,64.2,39.4,75.6
"Cn1cnc2c(F)c(Nc3ccc(Br)cc3Cl)c(C(=O)NOCCO)cc21 [selumetinib] + CO[C@H]1C[C@@H]2CC[C@@H](C)[C@@](O)(O2)C(=O)C(=O)N2CCCC[C@H]2C(=O)O[C@H]([C@H](C)C[C@@H]2CC[C@@H](OCCO)[C@H](OC)C2)CC(=O)[C@H](C)/C=C(\C)[C@@H](O)[C@@H](OC)C(=O)[C@H](C)C[C@H](C)/C=C/C=C/C=C/1C [everolimus] (first compound 0.015 µM, partner dose 0.02 µM)",10300,42.6,149,1050,87.1,191,82.3,118,162,106,182,101,97.7,198,75.9,160,178,30.9,172
"C[C@]1(O)C[C@@H](c2nc(-c3ccc4ccc(-c5ccccc5)nc4c3)c3c(N)nccn32)C1 + Clc1ccc(Nc2nnc(Cc3ccncc3)c3ccccc23)cc1 [vatalanib] (first compound 0.4 µM, partner dose 2 µM)",190,50.2,135,539,80.8,161,125,141,137,46.5,124,120,92.8,179,92.9,71.8,107,384,191
"CCN(CC)CCNC(=O)c1c(C)[nH]c(/C=C2\C(=O)Nc3ccc(F)cc32)c1C [sunitinib] + CN(c1ncccc1CNc1nc(Nc2ccc3c(c2)CC(=O)N3)ncc1C(F)(F)F)S(C)(=O)=O [PF562271] (first compound 0.4 µM, partner dose 0.08 µM)",63.2,58,195,59.8,174,64.6,235,97.2,120,72.8,58.1,86.1,122,118,93.3,58.2,97.9,152,184
